From ChEMBL document CHEMBL3988442, “University of Dundee, Small-Polar-MMV Screening Library” (2021).

Amino acid sequences for entries named in this document (tags omitted).
UniProt I6X8D2, whole entry: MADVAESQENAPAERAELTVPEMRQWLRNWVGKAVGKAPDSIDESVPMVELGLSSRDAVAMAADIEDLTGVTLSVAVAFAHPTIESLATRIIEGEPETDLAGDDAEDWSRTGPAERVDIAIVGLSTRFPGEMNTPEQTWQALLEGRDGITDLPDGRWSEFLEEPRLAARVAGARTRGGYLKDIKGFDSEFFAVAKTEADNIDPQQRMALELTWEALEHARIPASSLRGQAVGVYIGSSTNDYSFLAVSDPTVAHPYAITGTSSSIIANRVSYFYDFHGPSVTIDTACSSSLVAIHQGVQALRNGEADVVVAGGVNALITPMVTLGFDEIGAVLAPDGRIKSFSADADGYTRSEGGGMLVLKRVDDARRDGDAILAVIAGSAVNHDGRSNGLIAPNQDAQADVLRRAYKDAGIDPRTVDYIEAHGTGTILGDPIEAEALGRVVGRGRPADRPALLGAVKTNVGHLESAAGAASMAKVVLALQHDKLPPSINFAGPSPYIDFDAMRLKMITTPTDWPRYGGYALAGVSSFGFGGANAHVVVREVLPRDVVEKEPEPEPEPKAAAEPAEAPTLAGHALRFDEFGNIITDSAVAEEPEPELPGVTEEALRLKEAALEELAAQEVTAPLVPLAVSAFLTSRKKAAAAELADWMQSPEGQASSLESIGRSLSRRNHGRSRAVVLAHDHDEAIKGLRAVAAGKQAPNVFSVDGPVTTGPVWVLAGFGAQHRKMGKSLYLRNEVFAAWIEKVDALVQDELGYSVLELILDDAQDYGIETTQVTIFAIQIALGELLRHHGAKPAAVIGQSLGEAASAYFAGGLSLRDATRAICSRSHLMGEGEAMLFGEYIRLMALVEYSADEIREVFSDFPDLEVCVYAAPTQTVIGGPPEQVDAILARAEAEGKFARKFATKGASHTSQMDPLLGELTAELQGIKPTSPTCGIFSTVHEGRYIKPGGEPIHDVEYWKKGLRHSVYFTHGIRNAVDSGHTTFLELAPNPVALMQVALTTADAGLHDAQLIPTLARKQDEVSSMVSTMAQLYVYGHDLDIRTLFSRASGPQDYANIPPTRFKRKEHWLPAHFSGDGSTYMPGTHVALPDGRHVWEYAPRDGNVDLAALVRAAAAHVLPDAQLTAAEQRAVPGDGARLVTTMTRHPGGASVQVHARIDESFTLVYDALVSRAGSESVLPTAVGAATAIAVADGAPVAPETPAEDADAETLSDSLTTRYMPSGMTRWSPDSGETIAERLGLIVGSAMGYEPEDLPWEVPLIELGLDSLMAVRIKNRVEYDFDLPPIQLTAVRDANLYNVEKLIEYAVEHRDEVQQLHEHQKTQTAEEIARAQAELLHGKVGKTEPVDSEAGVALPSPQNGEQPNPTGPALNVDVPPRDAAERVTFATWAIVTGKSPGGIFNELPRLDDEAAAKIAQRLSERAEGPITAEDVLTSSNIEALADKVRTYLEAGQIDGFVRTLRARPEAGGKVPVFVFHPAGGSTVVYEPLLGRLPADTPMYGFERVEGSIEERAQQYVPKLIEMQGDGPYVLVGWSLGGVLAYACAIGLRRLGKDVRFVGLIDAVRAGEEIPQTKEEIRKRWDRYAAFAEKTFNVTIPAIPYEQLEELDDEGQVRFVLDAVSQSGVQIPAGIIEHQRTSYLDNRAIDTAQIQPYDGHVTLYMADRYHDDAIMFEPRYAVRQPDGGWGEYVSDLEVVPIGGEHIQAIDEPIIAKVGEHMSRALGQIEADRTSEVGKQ
UniProt P9WPC5, whole entry: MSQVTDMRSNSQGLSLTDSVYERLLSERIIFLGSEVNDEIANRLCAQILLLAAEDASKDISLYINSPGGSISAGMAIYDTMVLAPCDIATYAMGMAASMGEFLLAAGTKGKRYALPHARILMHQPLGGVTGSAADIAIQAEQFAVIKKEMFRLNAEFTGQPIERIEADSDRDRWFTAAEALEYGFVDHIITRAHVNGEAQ
UniProt P9WPC3, whole entry partner: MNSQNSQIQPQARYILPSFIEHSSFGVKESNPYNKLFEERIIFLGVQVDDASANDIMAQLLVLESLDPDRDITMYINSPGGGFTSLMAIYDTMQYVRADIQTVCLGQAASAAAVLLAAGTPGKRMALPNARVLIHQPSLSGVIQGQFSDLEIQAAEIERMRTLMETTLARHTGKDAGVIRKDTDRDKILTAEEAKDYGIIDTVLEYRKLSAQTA

Leishmania in macrophages: 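Cell assay of Leishmania donovani living inside macrophages; the read-out is not stated. Tested at 30 µM. The record gives no direction; compounds that gave an IC50 in retests scored well above the rest, so higher reads as stronger inhibition. About 69,000 compounds were tested under these conditions; 1.5% (about 1,000) showed 50% or more at least once.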
Pks13 thioesterase: 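Enzyme assay of the thioesterase domain of polyketide synthase 13; the read-out is not stated. Target: Polyketide synthase Pks13, Mycobacterium tuberculosis (UniProt I6X8D2). Tested at 30 µM. The record gives no direction; the compounds picked for IC50 retests had high values, so higher reads as stronger inhibition. Of about 67,000 compounds tested this way, about 300 (0.46%) reached 50% or more in at least one test.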
ClpP1P2: 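ClpP1P2, Mycobacterium tuberculosis (UniProt P9WPC5 and UniProt P9WPC3). Protease assay of ClpP1P2, read by the AMC dye that it sets free. Compounds at 50 µM. Higher reads as stronger inhibition, judged from the few compounds that gave an IC50. Most other retested compounds had strongly negative values. Size under these conditions: about 69,000 compounds, about 10 of them at 50% or above in at least one test.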
T. brucei: 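Whole-parasite assay of Trypanosoma brucei over 72 hours; the read-out is not stated. Compounds at 30 µM. Direction is inferred from retests: higher values go with stronger inhibition. Values scatter widely below zero; nearly all retest evidence comes from the higher of the two concentrations used. Size under these conditions: about 64,000 compounds, about 940 of them at 50% or above in at least one test.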

Each number is a percent effect as filed.
The controls that fix the scale are not given in the record; negative values are as filed.
This is an unselected part of the compounds tested.
Two or more numbers in one place are separate tests of the same structure; such repeats can differ widely.
A dash means the value is not listed here; it may have been measured.

| # | SMILES | Leishmania in macrophages | Pks13 thioesterase | ClpP1P2 | T. brucei |
|---|---|---|---|---|---|
| 1 | `CC(C)N(Cc1nc2c(cnn2C)c(=O)[nH]1)c1ccccc1` | -15.98 | -4.762 | 7.85 | -9.282 |
| 2 | `N#Cc1cn(C2CC2)c(=O)n(Cc2noc(-c3cccs3)n2)c1=O` | -14.03 | -15.65 | 11.65 | 18.62 |
| 3 | `O=C(NCc1cc(F)cc(Br)c1)C1(O)CCSCC1` | 9.629 | -28.47 | -5.469 | 5.826 |
| 4 | `Cc1nn(C)c2c(N3CCCC3)nc(C3CC3)nc12` | -2.047 | -11.85 | 8.302 | -8.671 |
| 5 | `CC(C)C(NC(=O)NCCNc1ncccn1)c1cccs1` (stereo not drawn) | 8.643 | -17.06 | -1.157 | -2.679 |
| 6 | `CC(C)Oc1ccccc1CNC(=O)N(C)C(C)CS(C)(=O)=O` (stereo not drawn) | 1.083 | -13.34 | 7.352 | -53.45 |
| 7 | `O=C(c1ccc[nH]1)N1CCc2c(COCC3CC3)cncc2C1` | - | -21.98 | -5.239 | - |
| 8 | `O=C(Nc1ccccc1F)N(CCO)CCOCC(F)(F)F` | -3.832 | -8.92 | -8.307 | -10.65 |
| 9 | `COc1cc(N2CC[C@@H](O)[C@@H]2Cc2cccnc2)ncn1` | - | -10.94 | -0.9449 | - |
| 10 | `FC(F)(F)c1nc(NC2CCCCC2)c2ccccc2n1` | 22.7 | -12.62 | -2.276 | 1.323 |
| 11 | `N#Cc1ccc(N2CCC3(CCC(=O)N3CCN3CCCC3)CC2)nc1` | - | -10.51 | 3.736 | - |
| 12 | `CCNC(=O)CN1CCN(Cc2nc3c(F)cccc3n2CC)CC1` | 25.75 | -20.53 | -38.14 | 9.704 |
| 13 | `CCCC(=O)NCC(Cc1cccc(F)c1)N1CCCC1=O` (stereo not drawn) | 23.65 & 19.4 | -16.81 | -14.74 | 4.481 |
| 14 | `Cc1noc(C)c1CN1CCN(Cc2ccncc2)c2ncccc2C1` | - | -28.16 | 8.849 | - |
| 15 | `Cn1c(CN2CCCCC2)nnc1C1CCN(c2nccc(N)n2)CC1` | 4.322 | -20.09 | -8.574 | -26.92 |
| 16 | `Cc1nc(C2CCCN(C(=O)CCn3ccccc3=O)C2)no1` (stereo not drawn) | 6.24 | -8.414 | -13.71 | -21.11 |
| 17 | `Cc1noc(C)c1CN1CCC2(CC1)NC(=O)CC2c1ccncc1` (stereo not drawn) | 15.86 | -10.18 | 1.189 | 18.69 |
| 18 | `NS(=O)(=O)c1cc(C(=O)N2CCCCC2)cs1` | 2.893 | -7.28 | -7.761 | -55.41 |
| 19 | `CCc1c(C)nc2cc(C3CCN(Cc4cccc(F)c4)C3)nn2c1O` (stereo not drawn) | -51.3 | - | 1.99 | 27.1 |
| 20 | `Cc1cc(CNC2CCCN(Cc3noc(C4CC4)n3)C2)on1` (stereo not drawn) | -2.347 | -37.95 | 9.119 | -39.39 |
| 21 | `Cc1ccc(N2CCCC(NCC(=O)NC(C3CC3)C3CC3)C2)nn1` (stereo not drawn) | 29.89 | -0.6064 | -5.5 | 7.146 |
| 22 | `Cc1occc1C(=O)N1C[C@@H](OCc2cccnc2)[C@H]2OCCC[C@@H]21` | - | -7.87 | -5.796 | - |
| 23 | `CCCC(NC(=O)c1ccc(OC)cc1F)c1nnn[nH]1` (stereo not drawn) | 4.827 | -14.43 | -15.07 | 21.23 |
| 24 | `O=C(NCC1COCc2c(-c3cccnc3)nnn2C1)c1cccs1` (stereo not drawn) | - | 2.638 | -2.52 | - |
| 25 | `COc1cc2c(cc1CN1CCCCC1CN1CCOCC1)CCC2` (stereo not drawn) | 22.77 | -8.281 | 0.6643 | -8.229 |
| 26 | `O=C(CCC1CCN(C2CSCCSC2)CC1)NCC1CCCO1` (stereo not drawn) | 1.753 | -19.97 | -2.099 | 2.948 |
| 27 | `O=C1CCCN1Cc1nnc2n1CCN(Cc1ccco1)CC2` | - | 0.04096 | -0.3395 | - |
| 28 | `COc1ccccc1OCCNC(=O)NCc1nc(C)no1` | 48.56 | 0.2821 | 4.384 | -21.92 |
| 29 | `Cn1cc(-c2cc(C(F)F)n3nc(CCC(=O)O)nc3n2)cn1` | 15.27 | 51.16 | 0.1632 | -6.225 |
| 30 | `CCC(Cn1ccc2[nH]c(=O)c(C#N)cc2c1=O)OC` (stereo not drawn) | 32.51 | -9.977 | -145.6 | 10.6 |
| 31 | `Cc1ccc([C@H]2CN(C(=O)C3CCC3)C[C@@H]2N)o1` | 12.17 | -16.65 | -5.274 | -25.77 |
| 32 | `CNS(=O)(=O)c1ccc(F)c(C(=O)NCc2ccnc(OC)c2)c1` | 20.06 | -26.31 | 4.845 | -23.89 |
| 33 | `Cc1occc1C(=O)N1Cc2nccn2CC(CN2CCOCC2)C1` (stereo not drawn) | - | -7.668 | -7.75 | - |
| 34 | `Cc1ccccc1OCCC(=O)N1CCc2nc(C)n(C)c(=O)c2CC1` | -10.15 | -20.28 | -0.9253 | -8.853 |
| 35 | `Cc1csc(C(=O)NCCN2CCC(c3cccs3)CC2)c1` | -36.43 | 27.21 | 0.9627 | 16.34 |
| 36 | `Cc1ccc(C(=O)N2CCN(C)C3(CCC(=O)N(C)CC3)C2)c(F)c1` (stereo not drawn) | 14.83 | -8.939 | -9.587 | -1.711 |
| 37 | `CN1CCC(NC(=O)[C@H]2CC[C@@H]3[C@@H](CCN3c3ncccn3)O2)CC1` | - | -35.4 | 11.35 | - |
| 38 | `CC(C)NC(=O)[C@@H]1CN(Cc2ccc3c(c2)OCO3)C[C@H]2OCC[C@H]21` | - | -16.75 | -4.984 | - |
| 39 | `Cl.Cl.[H][C@@]12CNC[C@]1([H])OCCN2Cc1c(C)noc1C` | -12.08 | - | - | -39.42 |
| 40 | `N#Cc1ccccc1N1CCCN(CC(=O)Nc2ccc(Cl)cn2)CC1` | 18.08 | -13.18 | -2.293 | -29.35 |
| 41 | `Cc1nccn1C1CCCN(C(=O)COCC(F)(F)F)C1` (stereo not drawn) | 15.46 | -0.8634 | 13.02 | -38.66 |
| 42 | `CN1CCN(Cc2cccnc2)C2(CCN(c3ncc(F)cn3)C2)C1=O.O=C(O)C(F)(F)F.O=C(O)C(F)(F)F` (stereo not drawn) | 6.593 | - | - | -9.555 |
| 43 | `O=C(NCCc1cccs1)N1CCC[C@H]1CO` | 12.49 | -39.02 | -1.942 | -22.13 |
| 44 | `O=C(Nc1cccc(OCC(F)F)n1)c1ccncc1F` | 29.54 | -16.51 | -4.413 | 14.36 |
| 45 | `Cc1ccn2ncc(C(=O)N3CCCC(n4cccn4)C3)c2n1` (stereo not drawn) | 19.01 | -0.4617 | -11.77 | -11.39 |
| 46 | `Cc1cc(NC(=O)N(CCO)Cc2ccsc2)no1` | 11.97 | -17.68 | -28.87 | 3.821 |
| 47 | `CN1CCN(C(=O)c2occc2CN2C(=O)Cc3ccccc32)CC1` | -7.37 | -12.93 | 5.541 | -6.996 |
| 48 | `O=C(NCCOc1ncc(Cl)cc1Cl)c1cccnc1` | 11.96 | -3.021 | -11.87 | -32.5 |
| 49 | `Cc1cnn(CCNCc2csc(-c3cccs3)n2)c1` | 12.34 | -8.87 | 1.431 | -16.53 |
| 50 | `[H][C@@]12CCN(Cc3nc(C)cs3)C[C@@]1([H])O[C@H](c1nc(C)no1)C2` | 0.9994 | - | - | -13.92 |
| 51 | `Cn1cncc1-c1nnc([C@H]2CCN(CC3CCCCC3)C2)o1` | 5.535 | -26.98 | -3.038 | -6.238 |
| 52 | `Cc1ccc(C)n1-c1c(C(=O)NCC(C)Cn2cccn2)cnn1C` (stereo not drawn) | 21.75 & 5.799 | - | -3.704 | -32 |
| 53 | `CCNC(=O)N[C@H]1C[C@@H](Cc2cc(CN3CCCCC3)on2)C1(C)C` | 4.328 | - | -9.886 | -5.75 |
| 54 | `COc1cccc(COCC(=O)NC2CCN(CC(N)=O)CC2)c1` | 12.59 | 3.652 | 6.293 | -156.5 |
| 55 | `Clc1cccc(-c2noc(CCN3CCN(c4ccncc4)CC3)n2)c1` | -25 | -57.21 | -0.3643 | -58.49 |
| 56 | `O=C(CCC(F)(F)F)N1CCCC(c2ncc[nH]2)C1` (stereo not drawn) | 5.789 | -5.43 | 11.65 | -32.89 |
| 57 | `Cc1nnc(CCNC(=O)[C@H]2CNC[C@@H](C(=O)N3CCCC3)C2)s1` | 47.73 | 8.719 | 1.324 | -55.27 |
| 58 | `CSCC(C)(O)CNc1ncccc1C(F)(F)F` (stereo not drawn) | -24.91 | -9.812 | -5.163 | -73.44 |
| 59 | `NC(=O)c1nc(-c2cccc(Cl)c2)oc1N` | 34.46 | 12.96 | -9.395 | -28.77 |
| 60 | `CC1(C)COCCN1C(=O)CCc1nc(-c2ccccn2)no1` | 29.69 | -5.113 | 4.492 | -24.91 |

For reference, 7 entries once more:

{"smiles": "Cn1cncc1-c1nnc([C@H]2CCN(CC3CCCCC3)C2)o1", "Leishmania in macrophages": 5.535, "Pks13 thioesterase": -26.98, "ClpP1P2": -3.038, "T. brucei": -6.238}
{"smiles": "Cc1ccccc1OCCC(=O)N1CCc2nc(C)n(C)c(=O)c2CC1", "Leishmania in macrophages": -10.15, "Pks13 thioesterase": -20.28, "ClpP1P2": -0.9253, "T. brucei": -8.853}
{"smiles": "O=C(NCCc1cccs1)N1CCC[C@H]1CO", "Leishmania in macrophages": 12.49, "Pks13 thioesterase": -39.02, "ClpP1P2": -1.942, "T. brucei": -22.13}
{"smiles": "Cc1ccc(C(=O)N2CCN(C)C3(CCC(=O)N(C)CC3)C2)c(F)c1", "stereo": "stereo not drawn", "Leishmania in macrophages": 14.83, "Pks13 thioesterase": -8.939, "ClpP1P2": -9.587, "T. brucei": -1.711}
{"smiles": "CN1CCN(Cc2cccnc2)C2(CCN(c3ncc(F)cn3)C2)C1=O.O=C(O)C(F)(F)F.O=C(O)C(F)(F)F", "stereo": "stereo not drawn", "Leishmania in macrophages": 6.593, "T. brucei": -9.555}
{"smiles": "CCC(Cn1ccc2[nH]c(=O)c(C#N)cc2c1=O)OC", "stereo": "stereo not drawn", "Leishmania in macrophages": 32.51, "Pks13 thioesterase": -9.977, "ClpP1P2": -145.6, "T. brucei": 10.6}
{"smiles": "Cc1occc1C(=O)N1C[C@@H](OCc2cccnc2)[C@H]2OCCC[C@@H]21", "Pks13 thioesterase": -7.87, "ClpP1P2": -5.796}